We go through 1 molecule from PMC10765524.

These are yes or no findings as the source states them, for the method shown. Some entries that bind do so weakly or less than the wild type.

The target in the assay is T1, B55 loopless (B55LL) (UniProt P63151).
T1 sequence: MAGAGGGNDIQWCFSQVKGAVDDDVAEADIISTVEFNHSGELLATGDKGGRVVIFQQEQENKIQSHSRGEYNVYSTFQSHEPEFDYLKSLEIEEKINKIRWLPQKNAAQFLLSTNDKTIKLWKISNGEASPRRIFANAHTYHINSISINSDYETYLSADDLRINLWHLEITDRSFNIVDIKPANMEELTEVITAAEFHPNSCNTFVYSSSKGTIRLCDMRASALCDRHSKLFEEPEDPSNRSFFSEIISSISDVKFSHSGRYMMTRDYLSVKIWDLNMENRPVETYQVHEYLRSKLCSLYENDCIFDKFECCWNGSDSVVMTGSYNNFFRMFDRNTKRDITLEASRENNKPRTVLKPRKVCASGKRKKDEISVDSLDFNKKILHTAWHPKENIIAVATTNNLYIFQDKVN
The experiment in a line: NMR titration; competition: complex of a 15N-labelled protein with B55LL formed first, then an excess of an unlabelled second protein added; 2D 1H,15N HSQC; both purified.

B1: p107_(612–687) (domain or fragment, UniProt P28749 612-687)
chain: MPMSPLMHPRVKEVRTDSGSLRRDMQPLSPISVHERYSSPTAGSAKRRLFGEDPPKEMLMDKIITEGTKLKIAPSS
As to B1, the binding entry was “binds”.
